Some of the results follow.
test system: T1, CTL2-GFP (C. trachomatis L2/434/Bu, GFP-expressing); design: species or system HeLa; Intracellular C. trachomatis growth in HeLa cells, bulk GFP fluorescence relative to DMSO; conditions: bulk GFP, single well; 28.5 h, 10 µM; inhibitor
T1 construct: L2/434/Bu, GFP-expressing

Row | Compound | % of control remaining
1 | O=C(C1CCCCC1)N1CCC(n2c(=O)oc3ccccc32)CC1 [CBK284348] | 121.424%
2 | OCCNc1nc(-c2ccccc2)cn2ccnc12 [CBK066379] | 89.0881%
3 | CCC12CN3CC(CC)(CN(C1)C3c1c(C)[nH]c3ccccc13)C2=O (centres unmarked) [CBK265547] | 126.39%
4 | Cc1cc(C)n(CCCn2cncc2-c2cn(C)nc2C)n1 [CBK281772] | 117.18%
5 | COc1ccc(Cl)cc1N/C=C(/C#N)c1nc(-c2cc3cc([N+](=O)[O-])ccc3oc2=O)cs1 [CBK263014] | 147.1%
6 | CCCc1[nH]n(-c2ccc([N+](=O)[O-])cc2)c(=O)c1/C=N/N1CCN(C)CC1 [CBK262781] | 108.584%
7 | CN1CCN(Cc2n[nH]c(=S)n2-c2cccc(C#N)c2)CC1 [CBK015465] | 111.868%
8 | O=C(O)c1ccc(S(=O)(=O)NC2CCS(=O)(=O)C2)cc1 (centres unmarked) [CBK262477] | 105.426%
9 | COc1ccc(S(=O)(=O)NCc2ccccn2)cc1NC(C)=O [CBK269554] | 128.682%
10 | O=C(O)c1ccc(S(=O)(=O)c2ccc3c(c2)C(=O)N(c2nccs2)C3=O)cc1 [CBK261189] | 111.512%
11 | CN1C2CCCC1CC(OC(=O)c1cccc3[nH]cnc13)C2 (centres unmarked) [CBK090162] | 143.575%
12 | CC(C)(C)OC(=O)N1CCN(CCC(=O)O)CC1 [CBK287143] | 113.277%
13 | CC(=O)c1ccc(OCC(=O)Nc2cnc(-c3cccc(C)c3)c(-c3ccc(N)cc3)n2)cc1 [CBK036722] | 146.288%
14 | O=C(NCCCc1nc2cc(F)ccc2[nH]1)[C@@H]1C[C@@H]2C=C[C@H]1C2 [CBK281665] | 113.879%
15 | O=C(N[C@H]1CO[C@H]2[C@@H]1OC[C@@H]2Nc1nccc(-c2cccs2)n1)c1ccccc1 [CBK289516] | 82.1276%
16 | Oc1ccccc1/C=N/Nc1nnc(-c2ccccc2)c(-c2ccccc2)n1 [CBK262003] | 100%
17 | CN1CCN(C(c2ccccc2)C(O)C(=O)c2c[nH]c3ccccc23)CC1 (centres unmarked) [CBK267823] | 100.48%
18 | COc1ccccc1Oc1ccc(S(=O)(=O)N2CCOCC2)cc1S(=O)(=O)N1CCOCC1 [CBK265176] | 113.708%
19 | Cc1nn(C)c(C)c1CN(C(=O)C(C)Oc1cccc(F)c1)C1CC1 (centres unmarked) [CBK281479] | 118.171%
20 | O=C1CC(C(=O)Nc2ccccn2)c2ccccc2N1 (centres unmarked) [CBK297771] | 120.774%
21 | CC1CCCN(CC(O)c2ccc3c(c2)CC(C)N3C(=O)C2CC2)C1 (centres unmarked) [CBK282125] | 163.762%
22 | C#CCNC(=O)c1nn(-c2nc3ccccc3s2)c2ccccc12 [CBK048486] | 155.904%
23 | CC(=O)N1CCN(c2cncc(-c3ccc(O)cc3)n2)CC1 [CBK126948T] | 99.1573%
24 | CN1CCN(c2nc(-c3cccc4ncccc34)cnc2N)CC1 [CBK063465] | 118.718%
25 | Cc1ccc(S(=O)(=O)CCc2noc(-c3n[nH]c4ccccc34)n2)cc1 [CBK288598] | 118.403%
26 | CN1CCCC(NC(=O)CCCOc2ccccc2F)C1 (centres unmarked) [CBK282072] | 103.773%
27 | CN(C)C(=O)CSc1cnc2ccccc2n1 [CBK086626] | 123.137%

Filtered by structure, the entries above with a nitro group on carbon.
Row | Compound | % of control remaining
5 | COc1ccc(Cl)cc1N/C=C(/C#N)c1nc(-c2cc3cc([N+](=O)[O-])ccc3oc2=O)cs1 [CBK263014] | 147.1%
6 | CCCc1[nH]n(-c2ccc([N+](=O)[O-])cc2)c(=O)c1/C=N/N1CCN(C)CC1 [CBK262781] | 108.584%

Additional records follow.

Row | Compound | % of control remaining
28 | CN1CCN(NC(=O)CN(C)S(=O)(=O)c2cc(Cl)ccc2Cl)CC1 [CBK267366] | 177.361%
29 | OCCN(Cc1cccnc1)Cc1cccn1-c1ccc(F)cc1F [CBK283042] | 111.415%
30 | COCCNc1nc(-c2ccccc2OC)ccc1C(=O)NCCNC(C)=O [CBK105974] | 106.472%
31 | CCNc1cc(-c2ccc(Cl)cc2)ncn1 [CBK090880] | 173.729%
32 | Cc1ccc(-c2ccc(N3CCN(C(=O)c4ccco4)CC3)nc2)cc1C [CBK037775] | 81.7044%
33 | O=C(CN1CCCc2ccccc21)c1ccsc1 [CBK138333] | 124.03%
34 | CSCCC(C(=O)O)n1c(S)nnc1-c1ccc2ccccc2n1 (centres unmarked) [CBK269230] | 160.729%
35 | Cc1ccc(N2NC(=O)/C(=C/c3ccc(-c4ccc5c(c4)C(=O)NC5=O)o3)C2=O)cc1C [CBK262963] | 116.782%
36 | Cc1cc(NC2CC3CCCC(C2)N3C)nc(N)n1 (centres unmarked) [CBK170333] | 139.955%
37 | O=S(=O)(Nc1ccc(-c2nnn[nH]2)cc1)c1ccc(F)c(C(F)(F)F)c1 [CBK154759] | 108.219%
38 | O=C(O)C1CCCCC1C(=O)Nc1ccc(S(=O)(=O)N2CCOCC2)cc1 (centres unmarked) [CBK268010] | 129.926%
39 | CC(=O)N1CCC2(C/C=C/C[C@H]3CN(Cc4nccs4)CC[C@H]3NC(=O)CNC2=O)CC1 [CBK292169] | 111.689%
40 | COc1ccc(CN2Cc3cccc(C(=O)O)c3C2=O)cc1OC [CBK291237] | 168.298%
41 | O=C1NCC2(C/C=C/CCOc3ccccc31)CCN(C(=O)c1ccncc1)CC2 [CBK292018] | 93.0613%
42 | O=C(Nc1sc2c(c1C(=O)NCCc1ccccc1)CCC2)c1sc2ccccc2c1Cl [CBK266379] | 143.84%
43 | COCCNC(=O)c1nn(-c2cccc(C(C)C)c2)cc1O [CBK304884] | 126.303%
44 | CCCCC(NC(=O)c1cc2ccccc2[nH]1)C(=O)O (centres unmarked) [CBK286647] | 113.79%
45 | Cn1ccnc1C(NC(=O)c1ccncc1)c1ccc(F)c(F)c1 (centres unmarked) [CBK283808] | 92.5135%
46 | CN1CCc2c(c(NCC3CCCO3)nc3[nH]nc(N)c23)C1 (centres unmarked) [CBK287955] | 140.344%
47 | Cc1ccc(NC(=O)NCCC2=CCCCC2)cc1Cl [CBK044135] | 107.698%
48 | COCCCOc1cc(N2CCCC2)ncn1 [CBK115896] | 141.583%
49 | O=C(c1nccs1)C1CCN(C(=O)Cc2ccccc2Cl)CC1 [CBK284162] | 108.322%
50 | CCCC(=O)c1ccc(S(=O)(=O)N2CCCN(Cc3ccc(F)c(C(F)(F)F)c3)CC2)cc1 [CBK062918] | 101.114%
51 | CCC(CC)(CC(=O)Nc1ccc(N2CCCC2=O)c(C)c1)C(=O)O [CBK297881] | 114.184%
52 | Cc1ccc(N2CC(C(=O)NCCc3ccc(S(N)(=O)=O)cc3)CC2=O)cc1 (centres unmarked) [CBK267531] | 151.189%
53 | Cc1c(CN(Cc2ccc(F)cc2)CC2CCCO2)cnn1C (centres unmarked) [CBK282589] | 108.662%
54 | N/C(=N/c1ccccn1)C(F)(F)F [CBK021049] | 112.782%

Row | Compound | % of control remaining
55 | CS(=O)(=O)c1ccc(C(=O)Nc2nccs2)cc1 [CBK255213] | 124.605%
56 | O=C(c1ccc(OC(F)F)cc1)N1CCCCC1 [CBK074223] | 125.659%
57 | O=C(NCc1ccccc1Cl)C1CCCN(S(=O)(=O)c2ccccc2)C1 (centres unmarked) [CBK269086] | 146.576%
58 | O=C(O)c1ccc(Oc2ccc([N+](=O)[O-])cc2)cc1C(=O)O [CBK260961] | 100%
59 | O=C(c1cccnc1)N1CCN(CC2(c3ccccc3)CC2)CC1 [CBK282906] | 110.022%
60 | O=C1CCCN1CCCNC(=O)N1CCN(Cc2ccccc2)CC1 [CBK155658] | 93.5858%
61 | NC(=O)C(=O)Nc1nc(-c2ccccc2)cs1 [CBK263005] | 100%
62 | Cc1c(C(=O)N2CCNC(=O)C2C(C)C)cnn1-c1ccc(Br)cc1 (centres unmarked) [CBK306472] | 70.2528%
63 | O=C(O)c1ccccc1NS(=O)(=O)Cc1ccccc1[N+](=O)[O-] [CBK042373] | 132.91%
64 | CCOC(=O)c1c(NC(=O)CC2Nc3ccccc3NC2=O)sc(C)c1C (centres unmarked) [CBK263381] | 121.12%
65 | CCc1nc2c(OCC=C(C)C)cccn2c1N(C)C(=O)c1cccc(OC)c1 [CBK147448] | 110.857%
66 | Cc1cccc(Cn2nc(C)c(NC(=O)COc3ccccc3)c2C)c1 [CBK270007] | 125.409%
67 | Cc1c(NC(=O)CCCC(=O)O)cccc1C(=O)O [CBK265525] | 100%
68 | Cc1cc(Cl)c(S(=O)(=O)N(C)C)cc1OCC(=O)Nc1ccccc1 [CBK269705] | 86.0723%
69 | Cn1cc(N2CCN(C(=O)CCOc3ccccc3)CC2)cn1 [CBK305473] | 82.8283%
70 | Clc1cccc(-c2nc(NCCCN3CCOCC3)c3ccccc3n2)c1 [CBK267309] | 163.912%
71 | CCCS(=O)(=O)N1CCCC(Cc2ccccc2C)(C(=O)OCC)C1 (centres unmarked) [CBK307502] | 92.0754%
72 | CCc1cc(-c2n[nH]cc2-c2nc(C)cs2)c(O)cc1OC [CBK287934] | 13.626%
73 | CCNS(=O)(=O)c1ccc(NS(=O)(=O)c2cc(C(=O)O)ccc2C)cc1 [CBK295296] | 137.003%
74 | Cc1ccc(NC(=O)Nc2ccc3cc(Br)cnc3n2)c(C)c1 [CBK063269] | 145.714%
75 | N#Cc1ccc(NCC(=O)Nc2ncn(Cc3cccnc3)n2)cc1 [CBK306343] | 134.776%
76 | CC(CNC(=O)CCc1cn(C)c2ccccc12)N1CCOCC1 (centres unmarked) [CBK281996] | 162%
77 | Nc1ncc(-c2ccco2)nc1N1CCOCC1 [CBK063456] | 113.401%
78 | O=C(Cc1ccc(F)cc1)NCc1nnc(-c2cccs2)o1 [CBK284640] | 166.702%
79 | COCCC(=O)Nc1ccc(N2CCNCC2)nc1 [CBK004749T] | 98.829%
80 | O=C(Cc1ccc(Cl)c(Cl)c1)N1CCCC2(CCN(Cc3ccccc3)C2)C1 (centres unmarked) [CBK136872] | 134.953%

Given as comma-separated lines: two of the compounds above
Row,Compound,% of control remaining
67,Cc1c(NC(=O)CCCC(=O)O)cccc1C(=O)O [CBK265525],100%
68,Cc1cc(Cl)c(S(=O)(=O)N(C)C)cc1OCC(=O)Nc1ccccc1 [CBK269705],86.0723%
